Measured values published in PubChem BioAssay AID186 (DTP/NCI, 2004).
Values are animals surviving of animals treated; these mice carried no tumour. Counts of survivors are from the toxicity check (mostly the fifth day) where no day follows; animals may have died later. Schedules are NCI's codes, taken here to give the interval after Q, in days (D) or hours (H), and the number of doses after X.

System: B6D2F1 mice, nontumored toxicity test, survival
Assay: NCI In Vivo Anticancer Drug Screen. Data for tumor model Nontumored Animals (Toxicity Test) in B6D2F1 (BDF1) mice
Conditions: vehicle: saline

Measured: survivor count

COc1cc2c(c(OC)c1OC)-c1ccc(OC)c(=O)cc1[C@@H](NC(C)=O)CC2
5 of 8: dose: 4.0 mg/kg/injection, schedule: Q01DX001 (ip) | dose: 4.0 mg/kg/injection, schedule: Q01DX001 (iv)
0 of 8: dose: 32.0 mg/kg/injection, schedule: Q01DX001 (oral) | dose: 500.0 micrograms/kg/injection, schedule: Q03HX008 (ip) | dose: 500.0 micrograms/kg/injection, schedule: Q03HX016 (ip) | dose: 500.0 micrograms/kg/injection, schedule: Q03HX024 (ip) | dose: 1000.0 micrograms/kg/injection, schedule: Q03HX008 (ip) | dose: 1000.0 micrograms/kg/injection, schedule: Q03HX016 (ip)
7 of 8: dose: 4.0 mg/kg/injection, schedule: Q01DX001 (oral) | dose: 125.0 micrograms/kg/injection, schedule: Q03HX016 (ip) | dose: 250.0 micrograms/kg/injection, schedule: Q03HX008 (ip) | dose: 250.0 micrograms/kg/injection, schedule: Q03HX016 (ip)
3 of 8: dose: 4.0 mg/kg/injection, schedule: Q01DX005 (oral) | dose: 8.0 mg/kg/injection, schedule: Q08DX002 (ip)
2 of 8: dose: 16.0 mg/kg/injection, schedule: Q01DX001 (oral) | dose: 1000.0 micrograms/kg/injection, schedule: Q01DX009 (ip)
4 of 8: dose: 4.0 mg/kg/injection, schedule: Q04DX003 (ip)
1 of 8: dose: 8.0 mg/kg/injection, schedule: Q01DX001 (ip) | dose: 8.0 mg/kg/injection, schedule: Q01DX001 (iv)
8 of 8: dose: 0.25 mg/kg/injection, schedule: Q04DX003 (ip) | dose: 0.5 mg/kg/injection, schedule: Q01DX001 (iv) | dose: 0.5 mg/kg/injection, schedule: Q01DX005 (oral) | dose: 0.5 mg/kg/injection, schedule: Q04DX003 (ip) | dose: 0.5 mg/kg/injection, schedule: Q08DX002 (ip) | dose: 1.0 mg/kg/injection, schedule: Q01DX001 (ip) | dose: 1.0 mg/kg/injection, schedule: Q01DX001 (iv) | dose: 1.0 mg/kg/injection, schedule: Q01DX005 (oral) | dose: 1.0 mg/kg/injection, schedule: Q04DX003 (ip) | dose: 1.0 mg/kg/injection, schedule: Q08DX002 (ip) | dose: 2.0 mg/kg/injection, schedule: Q01DX001 (ip) | dose: 2.0 mg/kg/injection, schedule: Q01DX001 (iv) | dose: 2.0 mg/kg/injection, schedule: Q01DX001 (oral) | dose: 2.0 mg/kg/injection, schedule: Q01DX005 (oral) | dose: 2.0 mg/kg/injection, schedule: Q04DX003 (ip) | dose: 2.0 mg/kg/injection, schedule: Q08DX002 (ip) | dose: 4.0 mg/kg/injection, schedule: Q08DX002 (ip) | dose: 8.0 mg/kg/injection, schedule: Q01DX001 (oral) | dose: 31.2 micrograms/kg/injection, schedule: Q03HX024 (ip) | dose: 62.5 micrograms/kg/injection, schedule: Q01DX005 (iv) | dose: 62.5 micrograms/kg/injection, schedule: Q01DX009 (ip) | dose: 62.5 micrograms/kg/injection, schedule: Q03HX016 (ip) | dose: 62.5 micrograms/kg/injection, schedule: Q03HX024 (ip) | dose: 125.0 micrograms/kg/injection, schedule: Q01DX005 (iv) | dose: 125.0 micrograms/kg/injection, schedule: Q01DX009 (ip) | dose: 125.0 micrograms/kg/injection, schedule: Q03HX008 (ip) | dose: 125.0 micrograms/kg/injection, schedule: Q03HX024 (ip) | dose: 250.0 micrograms/kg/injection, schedule: Q01DX005 (iv) | dose: 250.0 micrograms/kg/injection, schedule: Q01DX009 (ip) | dose: 250.0 micrograms/kg/injection, schedule: Q03HX024 (ip) | dose: 500.0 micrograms/kg/injection, schedule: Q01DX005 (iv) | dose: 500.0 micrograms/kg/injection, schedule: Q01DX009 (ip) | dose: 1000.0 micrograms/kg/injection, schedule: Q01DX005 (iv)
7 of 7: dose: 0.25 mg/kg/injection, schedule: Q01DX005 (oral)
